Test results from the supplement of paper PMC9454738.
Where a name gives a salt, the structure may show the parent alone. ± gives the standard deviation of the averaged measurements. Some of the results follow. This data set is noisy: repeats of one test often differ as much as different tests do.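 Test systems: triple-negative MDA-MB-231 breast cancer cells and their brain-metastatic MDA-MB-231BRM derivative, each stably carrying empty vector, full-length GLI1 or truncated tGLI1. Viability after 48 h was read by CellTiter-Blue and expressed against 1% DMSO vehicle. A compound was tGLI1-selective if it lowered viability 20% more in tGLI1 cells than in vector and GLI1 cells.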

Experiments:
Assay in all cases: cell viability relative to vehicle (DMSO) control (fraction); higher = more viable cells (less growth inhibition)
Details in all cases: treatment time 48 h
MDA-MB-231 GLI1 = test system: MDA-MB-231 GLI1
MDA-MB-231 Vector = test system: MDA-MB-231 Vector
MDA-MB-231 tGLI1 = test system: MDA-MB-231 tGLI1
MDA-MB-231BRM GLI1 = test system: MDA-MB-231BRM GLI1
MDA-MB-231BRM Vector = test system: MDA-MB-231BRM Vector
MDA-MB-231BRM tGLI1 = test system: MDA-MB-231BRM tGLI1

| SMILES | cell viability (MDA-MB-231 GLI1; 0.05 µM) | cell viability (MDA-MB-231 GLI1; 0.5 µM) | cell viability (MDA-MB-231 GLI1; 5 µM) | cell viability (MDA-MB-231 Vector; 0.05 µM) | cell viability (MDA-MB-231 Vector; 0.5 µM) | cell viability (MDA-MB-231 Vector; 5 µM) | cell viability (MDA-MB-231 tGLI1; 0.05 µM) | cell viability (MDA-MB-231 tGLI1; 0.5 µM) | cell viability (MDA-MB-231 tGLI1; 5 µM) | cell viability (MDA-MB-231BRM GLI1; 0.05 µM) | cell viability (MDA-MB-231BRM GLI1; 0.5 µM) | cell viability (MDA-MB-231BRM GLI1; 5 µM) | cell viability (MDA-MB-231BRM Vector; 0.05 µM) | cell viability (MDA-MB-231BRM Vector; 0.5 µM) | cell viability (MDA-MB-231BRM Vector; 5 µM) | cell viability (MDA-MB-231BRM tGLI1; 0.05 µM) | cell viability (MDA-MB-231BRM tGLI1; 0.5 µM) | cell viability (MDA-MB-231BRM tGLI1; 5 µM) |
| --- | --- | --- | --- | --- | --- | --- | --- | --- | --- | --- | --- | --- | --- | --- | --- | --- | --- | --- |
| CCOC(=O)[C@H](CCc1ccccc1)N[C@H]1CCc2ccccc2N(CC(=O)O)C1=O [Benazepril hydrochloride] | 1.16 | 1.14 | 1.02 | 1.37 | 1.09 | 1.1 | 1.07 | 1.14 | 1.26 | 1.08 | 1.04 | 1.01 | 1.06 | 1 | 0.996 | 1.07 | 1.02 | 1.06 |
| COc1cc(Nc2c(C#N)cnc3cc(OCCCN4CCN(C)CC4)c(OC)cc23)c(Cl)cc1Cl [Bosutinib (SKI-606)] | 1.02 ± 0.51 | 1.08 ± 0.097 | 0.468 ± 0.55 | 1.27 ± 0.44 | 0.963 ± 0.34 | 0.454 ± 0.39 | 0.993 ± 0.48 | 1.048 ± 0.0092 | 0.382 ± 0.48 | 0.934 ± 0.06 | 0.876 ± 0.083 | 0.985 ± 0.24 | 0.936 ± 0.018 | 0.949 ± 0.019 | 0.993 ± 0.15 | 0.981 ± 0.039 | 0.905 ± 0.047 | 0.952 ± 0.075 |
| Cc1cc(Nc2ncc(Cl)c(Nc3ccccc3S(=O)(=O)C(C)C)n2)c(OC(C)C)cc1C1CCNCC1 | 1.29 | 1.46 | -0.195 | 1.52 | 1.23 | -0.175 | 1.39 | 1.24 | -0.212 | 0.99 | 0.92 | -0.0427 | 1.07 | 0.957 | 0.171 | 0.964 | 0.905 | -0.0814 |
| Cc1nc(Nc2n[nH]c3c2CN(C(=O)N[C@H](CN(C)C)c2ccccc2)C3(C)C)c2sccc2n1 | 0.427 | 0.351 | 0.146 | 0.479 | 0.392 | 0.305 | 0.328 | 0.361 | 0.169 | 0.906 | 0.806 | 0.84 | 0.871 | 0.858 | 0.82 | 0.845 | 0.731 | 0.846 |
| C[C@@]1(C(=O)Nc2ccc(F)nc2)CCCN1c1nc(Nc2cc(C3CC3)n[nH]2)c2cccn2n1 | 1.47 | 1.65 | 0.887 | 1.45 | 1.15 | 0.803 | 1.27 | 1.32 | 0.706 | 0.978 | 0.982 | 1.05 | 0.961 | 0.949 | 1.01 | 0.975 | 0.964 | 0.885 |
| O=c1cc(N2CCOCC2)oc2c(-c3ccccc3)cccc12 | 1.48 | 1.64 | 0.872 | 1.41 | 1.26 | 0.827 | 1.22 | 1.35 | 0.812 | 0.983 | 0.975 | 0.97 | 0.99 | 0.903 | 0.947 | 0.916 | 0.922 | 0.954 |
| Cc1cc(C(=O)NOCCO)c(Nc2ccc(I)cc2F)n(C)c1=O | 0.751 | 0.305 | 0.803 | 0.862 | 0.533 | 0.603 | 0.68 | 0.624 | 0.737 | 1.25 | 1.22 | 0.923 | 1.27 | 1.07 | 1.05 | 0.619 | 1.27 | 0.876 |
